In patent US20190350240A1, “Electrolyte-Enhanced Sweetener and Consumable Products Obtained” (priority 2018, published 2019):

Test: Salt screen summary (sequence of four salt screens)
Details: not given

Molecule | Does the Electrolyte Salt Pass All Salt Screens?
[Cl-].[Cl-].[Mg+2] [Magnesium Chloride, magnesium chloride] | NO, Develops clumps and stickiness
O=C([O-])[O-].[Ca+2] [Calcium Carbonate, calcium carbonate] | NO, Develops chalky and dry flavor
O=S(=O)([O-])[O-].[Mg+2] [Magnesium Sulfate, magnesium sulfate] | NO, Develops sour and dry flavor
[Ca+2].[Cl-].[Cl-] [Calcium Chloride, calcium chloride] | NO, Develops clumps and stickiness

Same assay, conditions: summary of four salt screens

Molecule | Does the Electrolyte Salt Pass All Salt Screens?
[Cl-].[Na+] [Sodium Chloride, sodium chloride] | Yes
CC(O)C(=O)[O-].CC(O)C(=O)[O-].[Ca+2] (stereo not shown) [Calcium Lactate, calcium lactate] | NO, Develops muddy flavor
O=C([O-])O.[Na+] [Sodium Bicarbonate, sodium bicarbonate] | NO, Develops muddy flavor
[Cl-].[K+] [Potassium Chloride, potassium chloride] | Yes
O=P([O-])(O)O.[Na+] [Sodium Phosphate Monobasic, sodium phosphate monobasic] | NO, Develops muddy flavor
magnesium citrate | NO, Difficult to dissolve

Some compounds share one wording; it may come from a single statement.
